Source: publication PMC6396947
These are yes or no findings as the source states them, for the method shown. In cells and extracts the contact can be indirect. Some entries that bind do so weakly or less than the wild type. Tags and fused reporters may be left off the sequences shown.

Amino acid sequences for entries named in this document (tags omitted).
UniProt Q16531: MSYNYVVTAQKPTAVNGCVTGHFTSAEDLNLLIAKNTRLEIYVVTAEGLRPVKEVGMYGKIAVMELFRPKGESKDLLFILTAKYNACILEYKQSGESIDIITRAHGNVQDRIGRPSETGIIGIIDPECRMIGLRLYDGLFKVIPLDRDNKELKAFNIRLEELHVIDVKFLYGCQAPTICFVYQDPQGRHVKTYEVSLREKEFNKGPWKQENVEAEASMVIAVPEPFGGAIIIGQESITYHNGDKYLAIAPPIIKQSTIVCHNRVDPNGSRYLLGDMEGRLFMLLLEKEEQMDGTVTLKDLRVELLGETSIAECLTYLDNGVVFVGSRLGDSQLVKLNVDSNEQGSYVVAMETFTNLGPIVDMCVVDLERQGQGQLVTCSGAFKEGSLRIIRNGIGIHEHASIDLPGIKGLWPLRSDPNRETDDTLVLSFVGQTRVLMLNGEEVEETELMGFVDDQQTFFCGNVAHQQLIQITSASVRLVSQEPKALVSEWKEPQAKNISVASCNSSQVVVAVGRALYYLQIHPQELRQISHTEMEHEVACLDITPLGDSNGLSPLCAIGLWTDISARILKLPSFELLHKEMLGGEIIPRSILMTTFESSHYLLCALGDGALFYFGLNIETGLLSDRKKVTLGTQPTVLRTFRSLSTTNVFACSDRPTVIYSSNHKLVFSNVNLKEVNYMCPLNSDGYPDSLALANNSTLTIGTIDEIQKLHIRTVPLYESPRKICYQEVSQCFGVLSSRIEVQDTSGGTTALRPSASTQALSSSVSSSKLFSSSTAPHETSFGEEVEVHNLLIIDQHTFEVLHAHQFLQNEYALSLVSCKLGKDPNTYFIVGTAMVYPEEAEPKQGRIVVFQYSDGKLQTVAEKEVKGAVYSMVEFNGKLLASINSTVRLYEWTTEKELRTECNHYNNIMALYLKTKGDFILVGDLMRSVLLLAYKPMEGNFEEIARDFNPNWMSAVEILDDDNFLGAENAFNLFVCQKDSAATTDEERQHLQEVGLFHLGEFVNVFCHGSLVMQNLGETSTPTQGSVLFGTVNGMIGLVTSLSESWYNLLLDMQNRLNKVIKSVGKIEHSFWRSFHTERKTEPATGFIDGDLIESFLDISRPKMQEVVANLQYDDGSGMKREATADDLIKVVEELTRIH

T1: Flag-MMS22L (human) (UniProt Q6ZRQ5)
T1 sequence: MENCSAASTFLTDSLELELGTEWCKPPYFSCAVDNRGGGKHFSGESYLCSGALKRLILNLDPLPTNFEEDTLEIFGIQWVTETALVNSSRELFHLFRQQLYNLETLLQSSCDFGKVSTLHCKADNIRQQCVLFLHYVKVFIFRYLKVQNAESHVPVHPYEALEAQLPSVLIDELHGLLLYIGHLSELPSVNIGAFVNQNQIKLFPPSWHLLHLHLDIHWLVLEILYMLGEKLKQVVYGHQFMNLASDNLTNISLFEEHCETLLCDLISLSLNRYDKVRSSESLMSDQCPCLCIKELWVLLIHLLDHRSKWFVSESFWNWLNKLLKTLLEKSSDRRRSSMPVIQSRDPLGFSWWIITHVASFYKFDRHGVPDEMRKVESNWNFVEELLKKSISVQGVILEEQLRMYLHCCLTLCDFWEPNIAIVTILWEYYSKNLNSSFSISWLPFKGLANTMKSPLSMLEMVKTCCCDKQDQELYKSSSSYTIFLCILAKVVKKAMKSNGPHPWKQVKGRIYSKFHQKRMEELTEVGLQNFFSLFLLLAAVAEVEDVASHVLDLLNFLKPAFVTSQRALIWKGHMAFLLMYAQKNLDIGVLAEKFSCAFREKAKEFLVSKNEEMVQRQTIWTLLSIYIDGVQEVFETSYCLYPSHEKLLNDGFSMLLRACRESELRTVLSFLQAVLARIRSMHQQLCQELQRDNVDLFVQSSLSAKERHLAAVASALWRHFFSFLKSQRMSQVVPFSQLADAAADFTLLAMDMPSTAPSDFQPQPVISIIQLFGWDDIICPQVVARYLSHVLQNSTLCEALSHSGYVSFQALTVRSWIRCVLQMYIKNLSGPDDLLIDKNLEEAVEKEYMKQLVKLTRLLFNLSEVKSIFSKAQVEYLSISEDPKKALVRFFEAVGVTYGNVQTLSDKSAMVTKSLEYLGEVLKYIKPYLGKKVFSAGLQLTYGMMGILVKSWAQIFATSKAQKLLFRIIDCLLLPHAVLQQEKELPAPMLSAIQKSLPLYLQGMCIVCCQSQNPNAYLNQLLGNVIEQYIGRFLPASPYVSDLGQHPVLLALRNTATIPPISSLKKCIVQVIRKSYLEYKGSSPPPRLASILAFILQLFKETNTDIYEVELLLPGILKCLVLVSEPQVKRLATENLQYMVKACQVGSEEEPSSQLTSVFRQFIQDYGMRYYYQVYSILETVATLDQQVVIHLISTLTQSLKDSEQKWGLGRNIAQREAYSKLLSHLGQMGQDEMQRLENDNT

T2: GST-ESCO2-LG (L415DG417D) (human) (UniProt Q56NI9)
T2 sequence: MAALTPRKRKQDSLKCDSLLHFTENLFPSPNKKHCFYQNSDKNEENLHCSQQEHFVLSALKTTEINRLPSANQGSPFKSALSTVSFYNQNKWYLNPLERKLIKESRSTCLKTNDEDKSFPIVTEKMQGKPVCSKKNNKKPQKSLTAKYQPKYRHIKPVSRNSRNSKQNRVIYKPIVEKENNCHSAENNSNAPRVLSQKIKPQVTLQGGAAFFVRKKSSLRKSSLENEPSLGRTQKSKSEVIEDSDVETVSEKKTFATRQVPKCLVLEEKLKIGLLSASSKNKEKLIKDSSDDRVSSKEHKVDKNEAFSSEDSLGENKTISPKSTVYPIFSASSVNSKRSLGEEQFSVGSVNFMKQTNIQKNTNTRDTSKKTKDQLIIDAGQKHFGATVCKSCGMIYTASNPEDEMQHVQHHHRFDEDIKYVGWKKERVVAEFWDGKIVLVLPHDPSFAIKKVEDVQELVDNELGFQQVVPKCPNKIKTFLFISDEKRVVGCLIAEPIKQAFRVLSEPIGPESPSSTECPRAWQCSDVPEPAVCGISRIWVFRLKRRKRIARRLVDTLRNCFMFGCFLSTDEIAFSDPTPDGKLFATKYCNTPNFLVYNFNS


Key:
Flag-MMS22L (human) = target: T1, Flag-MMS22L (human); assay: co-IP; Flag-tagged and GFP-tagged proteins co-expressed in 293T cells; lysis buffer 50 mM Tris-HCl, 150 mM NaCl, 1% NP-40, 5 mM EDTA, 10% glycerin; 250 ug total protein with anti-Flag agarose 1.5 h at 4 C, five washes; immunoblots against Flag and GFP
[1] = target: T2, GST-ESCO2-LG (L415DG417D) (human); assay: pull-down; GST-ESCO2 or its mutants bound to glutathione sepharose, incubated with FLAG-MMS22L or His6-PCNA; co-purified fractions detected by western blotting; as described in ref. 20

Row | binding (Flag-MMS22L (human)) | binding [1] | Molecule
1 | binds |  | GFP-DDB1 (from UniProt Q16531 1-1140)
2 |  | binds weakly | FLAG-MMS22L (of the GST pull-down) (protein, UniProt Q6ZRQ5 1-1243) MENCSAASTFLTDSLELELGTEWCKPPYFSCAVDNRGGGKHFSGESYLCSGALKRLILNLDPLPTNFEEDTLEIFGIQWVTETALVNSSRELFHLFRQQLYNLETLLQSSCDFGKVSTLHCKADNIRQQCVLFLHYVKVFIFRYLKVQNAESHVPVHPYEALEAQLPSVLIDELHGLLLYIGHLSELPSVNIGAFVNQNQIKLFPPSWHLLHLHLDIHWLVLEILYMLGEKLKQVVYGHQFMNLASDNLTNISLFEEHCETLLCDLISLSLNRYDKVRSSESLMSDQCPCLCIKELWVLLIHLLDHRSKWFVSESFWNWLNKLLKTLLEKSSDRRRSSMPVIQSRDPLGFSWWIITHVASFYKFDRHGVPDEMRKVESNWNFVEELLKKSISVQGVILEEQLRMYLHCCLTLCDFWEPNIAIVTILWEYYSKNLNSSFSISWLPFKGLANTMKSPLSMLEMVKTCCCDKQDQELYKSSSSYTIFLCILAKVVKKAMKSNGPHPWKQVKGRIYSKFHQKRMEELTEVGLQNFFSLFLLLAAVAEVEDVASHVLDLLNFLKPAFVTSQRALIWKGHMAFLLMYAQKNLDIGVLAEKFSCAFREKAKEFLVSKNEEMVQRQTIWTLLSIYIDGVQEVFETSYCLYPSHEKLLNDGFSMLLRACRESELRTVLSFLQAVLARIRSMHQQLCQELQRDNVDLFVQSSLSAKERHLAAVASALWRHFFSFLKSQRMSQVVPFSQLADAAADFTLLAMDMPSTAPSDFQPQPVISIIQLFGWDDIICPQVVARYLSHVLQNSTLCEALSHSGYVSFQALTVRSWIRCVLQMYIKNLSGPDDLLIDKNLEEAVEKEYMKQLVKLTRLLFNLSEVKSIFSKAQVEYLSISEDPKKALVRFFEAVGVTYGNVQTLSDKSAMVTKSLEYLGEVLKYIKPYLGKKVFSAGLQLTYGMMGILVKSWAQIFATSKAQKLLFRIIDCLLLPHAVLQQEKELPAPMLSAIQKSLPLYLQGMCIVCCQSQNPNAYLNQLLGNVIEQYIGRFLPASPYVSDLGQHPVLLALRNTATIPPISSLKKCIVQVIRKSYLEYKGSSPPPRLASILAFILQLFKETNTDIYEVELLLPGILKCLVLVSEPQVKRLATENLQYMVKACQVGSEEEPSSQLTSVFRQFIQDYGMRYYYQVYSILETVATLDQQVVIHLISTLTQSLKDSEQKWGLGRNIAQREAYSKLLSHLGQMGQDEMQRLENDNT
